This passage reports binding signal results from PMC7862700.

The entries are a selection whose mix differs from that of the whole data set. At the low end of the ranking the order means little.

The assay has as its target SPI1 (UniProt P17947). The experiment in a line: DAPPL (digital affinity profiling via proximity ligation, sequencing). Particulars: 10 mM Tris-HCl pH 7.5, 50 mM NaCl, 1 mM DTT, 4% glycerol, room temperature, 30 min; GST-TFs on glutathione beads, 16-mer random dsDNA library, 0.1% …; high values mean tight binding; double strand, one strand shown; scale: fold enrichment (6-mer frequency, TF over GST control).
In turn, GCCAAA displayed a binding signal of 0.939. For the sequence GCGTAC, the binding signal was determined as 0.779. In the case of GAGACC it was 0.212. TCGGCA showed a binding signal of 0.726. In the case of AGCCAA it was 0.868; in that of CGCATT, 0.929; in that of GGCGGC, 0.542. Sequence GACAGT came in with a binding signal of 0.446. The same measure for CCACGG: 0.848. The same measure for CCGTTG: 0.798; for GACGTG: 0.33; for AGAGAC: 0.499. The same measure for GTGTCA: 0.877; for GGGGCA: 0.649. With AGCGGT, the binding signal stood at 0.758. In turn, GGAGTT gave a binding signal of 0.419. The same measure for CGTAGT: 0.792; for GCGGAG: 0.268; for GGTGCC: 0.711. In the case of GCTGTG it was 0.621. In the case of AGTTCA it was 1.01.

In turn, TGAGGG registered a binding signal of 0.651. In the case of CAGGTA it was 0.77; in that of GGGTCT, 0.937. CGGCCG: the binding signal was 0.793.

TGGAGA gave a binding signal of 0.412. The same measure for GGTCGA: 0.718. The same measure for GGGTGC: 0.734; for GCAGAG: 0.625. On to GTAGAG, for which the binding signal came out at 0.578. Regarding GGAACG, the binding signal came out at 0.62. In the case of GACTGA it was 0.767; in that of AGCCAT, 0.86. CGGAGT came in with a binding signal of 0.341. In the case of ACAGGC it was 0.673; in that of ACCGAG, 0.735; in that of GAGTGA, 0.375. The same measure for CGGACG: 0.459; for TGGGTC: 0.655; for AGACAA: 0.807.
